This note sets out measurements from article PMC5351991.

No constants are given. Whether binding was seen depends on the method and setting. Binding calls can cover weak binding; strength is not graded here. Tags and fused reporters may be left off the sequences shown.

This assay concerns the target Cytoplasmic region of AtNIP1;1, yeast two-hybrid fusion (Arabidopsis thaliana). Nature of the assay: two-hybrid; yeast strain AH109; Gal4 activation domain and DNA-binding domain fusions; growth on SC -Leu-Trp-His or SC -Leu-Trp-His-Ade with 10 mM 3-amino-1,2,4-triazole and 40 uM X-alpha-gal, 30°C, serial dilutions.

B1: Calcium-dependent protein kinase CPK31, full-length, yeast two-hybrid fusion (enzyme, UniProt Q9S9V0 1-484)
chain: MGCYSSKNLKQSKRTILEKPFVDIGKVYILGDELGQGQFGITRKCVEKTSGKTYACKTILKTNLKSREDEEAVKREIRIMKHLSGEPNIVEFKKAYEDRDSVHIVMEYCGGGELFKKIEALSKDGKSYSEKEAVEIIRPIVNVVKNCHYMGVMLRDLKPENFLLSSTDKNATVKAIDFGCSVFIEEGEVHRKFAGSAYYIAPEVLQGKYGKEADIWSAGIILYILLCGKPPFVTEPEAQMFSEIKSAKIDVDSESWKFIDVKAKHLVNRMLNRNPKERISAAEVLGHPWMKDGEASDKPIDGVVLSRLKQFRDMNKLKKVALKVIAANLSEEEIKGLKTLFTNIDTDKSGTITLEELKTGLTRLGSNLSKTEVEQLMEAADVDGNGTIDIDEFISATMHRYRLDRDDHVYQAFQHFDKDNDGHITKEELEMAMKEHGVGDEVSIKQIITEVDTDNDGKINFEEFRTMMRSGSSLQPQRELLPIK
As to B1, the binding result is given as “binds”.
